PubChem BioAssay AID1508597, Cure First – 2020
This is an unselected part of the about 2,100 reagents, in one setting of the screen. 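Calls flag viability under 80% in either arm, not effects specific to rucaparib; the reference for percent is not stated.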 Unmarked entries are inactive. A reagent listed more than once was tested more than once; the source does not tell the runs apart. Not stated in the record: the 100% reference.

Purpose: 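Genes whose silencing sensitises or protects ovarian cancer cells against rucaparib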 (primary screen)
System: human ovarian carcinoma lines grown from tumours: OCI-P5x (papillary serous) and OCI-C5x (clear cell)
Knock-down reagent: siRNA pool against human genes, 1.25 pmol siRNA per well
Duration: 72 h or 96 h, depending on the cell culture
Conditions: rucaparib 20 µM (about IC30) or vehicle, present until read-out
Rucaparib or vehicle: Rucaparib
Cell line: OCI-C5x (clear cell)
Detection: 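Luminescent ATP-based viability assay read 72 or 96 h after transfection, depending on culture, given as normalised percent viability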
Reading the numbers: viability, normalised: higher = more viable cells remaining
Call rule: 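Active when normalised viability falls below 80 percent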
Calls: active = viability under 80%; inactive = viability 80% or more

| target | technical replicate | viability, normalised (%) |
| --- | --- | --- |
| MAP2K4 | 1 | 51.5 (active) |
| MAP2K4 | 2 | 47 (active) |
| MAP2K4 | 3 | 47.9 (active) |
| DNAJC2 | 1 | 41.1 (active) |
| DNAJC2 | 2 | 34.5 (active) |
| DNAJC2 | 3 | 41.2 (active) |
| DEK | 1 | 42 (active) |
| DEK | 2 | 31.6 (active) |
| DEK | 3 | 28.4 (active) |
| NODAL | 1 | 46.5 (active) |
| NODAL | 2 | 51.1 (active) |
| NODAL | 3 | 51.6 (active) |
| MAPK8 | 1 | 62.2 (active) |
| MAPK8 | 2 | 51.9 (active) |
| MAPK8 | 3 | 53.7 (active) |
| ARX | 1 | 54.4 (active) |
| ARX | 2 | 55.4 (active) |
| ARX | 3 | 40.6 (active) |
| ADCK5 | 1 | 30.5 (active) |
| ADCK5 | 2 | 56.2 (active) |
| ADCK5 | 3 | 54.4 (active) |
| CLDN12 | 1 | 55.9 (active) |
| CLDN12 | 2 | 51 (active) |
| CLDN12 | 3 | 41.7 (active) |
| MAP3K10 | 1 | 58.1 (active) |
| MAP3K10 | 2 | 52.8 (active) |
| MAP3K10 | 3 | 88.4 |
| ELP3 | 1 | 37 (active) |
| ELP3 | 2 | 43.8 (active) |
| ELP3 | 3 | 32.3 (active) |
| SLC1A4 | 1 | 41.3 (active) |
| SLC1A4 | 2 | 60.9 (active) |
| SLC1A4 | 3 | 55.9 (active) |
| SMYD5 | 1 | 55.4 (active) |
| SMYD5 | 2 | 37.7 (active) |
| SMYD5 | 3 | 51.3 (active) |
| EPHA5 | 1 | 53.3 (active) |
| EPHA5 | 2 | 53.6 (active) |
| EPHA5 | 3 | 67.3 (active) |
| DLG3 | 1 | 44.1 (active) |
| DLG3 | 2 | 44.6 (active) |
| DLG3 | 3 | 45.8 (active) |
| NRBP2 | 1 | 64.1 (active) |
| NRBP2 | 2 | 59.8 (active) |
| NRBP2 | 3 | 59.1 (active) |
| ATF7IP | 1 | 60.3 (active) |
| ATF7IP | 2 | 58.5 (active) |
| ATF7IP | 3 | 58.1 (active) |
| PKM | 1 | 59.1 (active) |
| PKM | 2 | 75.2 (active) |
| PKM | 3 | 72 (active) |
| ITPKB | 1 | 69.2 (active) |
| ITPKB | 2 | 56.4 (active) |
| ITPKB | 3 | 40.8 (active) |
| YES1 | 1 | 41.7 (active) |
| YES1 | 1 | 51.3 (active) |
| YES1 | 2 | 44.4 (active) |
| YES1 | 2 | 51.7 (active) |
| YES1 | 3 | 46.1 (active) |
| YES1 | 3 | 38.5 (active) |

6 entries from above, ordered by “viability, normalised (%)”, high to low:
| target | technical replicate | viability, normalised (%) |
| --- | --- | --- |
| NODAL | 1 | 46.5 (active) |
| DEK | 1 | 42 (active) |
| DNAJC2 | 3 | 41.2 (active) |
| DNAJC2 | 2 | 34.5 (active) |
| DEK | 2 | 31.6 (active) |
| DEK | 3 | 28.4 (active) |
